From paper PMC5758568, “Cryo EM structure of intact rotary H^+-ATPase/synthase from Thermus thermophilus” (Nature Communications, 2018)
No constants are given. Whether binding was seen depends on the method and setting. Binding can be weak; no strength is given.

What was measured:
[1] = biological target: T1, E-subunit of the V/A-ATPase from Thermus thermophilus (Thermus thermophilus) (UniProt P74901); experiment: cryo-EM structure; single particle cryo-EM of the whole V/A-ATPase in TE buffer (20 mM Tris-HCl pH 8.0, 0.1 mM EDTA) with 0.003% LMNG and 100 mM NaCl, no nucleotide added; three rotational states (5.0, 6.7, 7.5 Å), focused V1EGd map of state1 4.7 Å; crystal structures and homology models fitted by MDFF; both purified
T1 sequence: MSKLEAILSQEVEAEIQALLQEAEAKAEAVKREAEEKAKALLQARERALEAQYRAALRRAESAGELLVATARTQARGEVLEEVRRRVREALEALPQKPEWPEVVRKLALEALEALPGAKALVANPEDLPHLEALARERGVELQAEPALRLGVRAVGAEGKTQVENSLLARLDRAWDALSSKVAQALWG

[2] = biological target: a-subunit (subunit I) of the V/A-ATPase from Thermus thermophilus (Thermus thermophilus); experiment: as above

Molecule: G-subunit of the V/A-ATPase from Thermus thermophilus
- binding [1]: binds

B1: E-subunit of the V/A-ATPase from Thermus thermophilus (natural protein)
chain: T1 sequence
notes: V/A-type ATPase E-subunit (peripheral stalk), Thermus thermophilus; native subunit in the isolated whole enzyme; Two copies in the enzyme (two EG stalks); also called subunit E; EG stalk (with G)
- binding [2]: binds
